Source: PubChem BioAssay AID743454 (Peter MacCallum Cancer Centre, 2014)
This is a random part of about 18,000 reagents tested. 450 of all reagents (2.5%) count as active. 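Single biological run; no consistent viability z cut-off exists, so the class columns, not z-scores, define the calls.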 A number with no mark means an inactive call.

- Test: 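Search for knock-downs that restore vorinostat killing in resistant colon cancer cells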 (primary screen)
- System: human HCT116-VR colon cancer cells, selected for vorinostat resistance
- Knock-down reagent: siRNA pool against human genes, 40 nM siRNA pool
- Duration: vorinostat for 24 h, read-out about 72 h after transfection
- Conditions: vorinostat at 2.5 µM final
- Measured: 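Cell viability by CellTiter-Fluor and caspase 3/7 activity by luminescence, each scaled to mock wells per plate, duplicates averaged, then robust z-scored over all plates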
- Direction: viability robust z-score: higher = more viable cells than screen typical; caspase robust z-score: higher = more caspase 3/7 activity than screen typical
- Rule for the call: 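Hits are knock-downs in viability class RV1/RV2 or caspase class CA1/CA2, excluding ones that killed cells in the no-drug cell-count arm; hits then retested with single siRNAs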

The first 5 records as a preview:
| gene | viability hit class | caspase hit class | viability robust z-score | caspase robust z-score |
| --- | --- | --- | --- | --- |
| CHURC1 (churchill domain containing 1) | no change | no change | 0.36 | -1.17 |
| SRARP (steroid receptor associated and regulated protein) | no change | no change | 0.47 | -0.48 |
| TMEM33 (transmembrane protein 33) | no change | no change | -0.12 | 2.95 |
| PIK3R1 (phosphoinositide-3-kinase regulatory subunit 1) | no change | no change | 0.84 | 0 |
| EPHA2 (EPH receptor A2) | no change | no change | 0.36 | -0.13 |

The list itself, repeating the preview:
| gene | viability hit class | caspase hit class | viability robust z-score | caspase robust z-score |
| --- | --- | --- | --- | --- |
| CHURC1 (churchill domain containing 1) | no change | no change | 0.36 | -1.17 |
| SRARP (steroid receptor associated and regulated protein) | no change | no change | 0.47 | -0.48 |
| TMEM33 (transmembrane protein 33) | no change | no change | -0.12 | 2.95 |
| PIK3R1 (phosphoinositide-3-kinase regulatory subunit 1) | no change | no change | 0.84 | 0 |
| EPHA2 (EPH receptor A2) | no change | no change | 0.36 | -0.13 |
| CELF4 (CUGBP Elav-like family member 4) | no change | no change | 0.81 | 3.37 |
| ELAVL2 (ELAV like RNA binding protein 2) | no change | no change | 0.78 | 0.25 |
| FBP1 (fructose-bisphosphatase 1) | no change (active) | CA1 (caspase activation) | -0.55 | 5.15 |
| SLC4A3 | no change | no change | 0.99 | 0.39 |
| CFHR3 (complement factor H related 3) | no change | no change | -0.08 | -0.4 |
| OR1G1 (olfactory receptor family 1 subfamily G member 1) | no change | no change | -0.31 | 2.29 |
| ZSCAN32 (zinc finger and SCAN domain containing 32) | no change | no change | -0.44 | 0.48 |
| NF1 (neurofibromin 1) | no change | no change | 0.12 | -0.21 |
| HGFAC (HGF activator) | no change | no change | -0.6 | 0.44 |
| CCDC62 (coiled-coil domain containing 62) | no change | no change | 1.34 | -0.82 |
| RSAD1 (radical S-adenosyl methionine domain containing 1) | no change | no change | 0.01 | -1.15 |
| COX6A1 (cytochrome c oxidase subunit 6A1) | no change | no change | 0.32 | -0.17 |
| ERP44 (endoplasmic reticulum protein 44) | no change | no change | -0.78 | 0.27 |
| TMEM59L (transmembrane protein 59 like) | no change | no change | -0.12 | 1.23 |
| KCNIP3 (potassium voltage-gated channel interacting protein 3) | no change | no change | -0.88 | 3.1 |
| RNF112 (ring finger protein 112) | no change | no change | -0.71 | -0.68 |
| MOK (MOK protein kinase) | no change | no change | 0.55 | 2.19 |
| MT1E (metallothionein 1E) | no change | no change | 0.61 | -0.62 |
| TAF9B (TATA-box binding protein associated factor 9b) | no change | no change | -0.66 | 2.01 |
| MMADHC (metabolism of cobalamin associated D) | no change | no change | -0.03 | -0.67 |
| SPTBN1 (spectrin beta, non-erythrocytic 1) | no change | no change | -1.46 | 0.45 |
| PWP1 (PWP1 homolog, endonuclein) | no change | no change | 0.03 | 0.1 |
| KCNH5 (potassium voltage-gated channel subfamily H member 5) | no change | no change | 0.26 | -0.76 |
| C7orf33 (chromosome 7 open reading frame 33) | no change | no change | 1.13 | -0.4 |
| BLVRA (biliverdin reductase A) | no change | no change | -0.52 | 1.52 |
| TCF20 (transcription factor 20) | no change | no change | 0.01 | -0.2 |
| FSD2 (fibronectin type III and SPRY domain containing 2) | no change | no change | -0.02 | -0.4 |
| MBLAC2 (metallo-beta-lactamase domain containing 2) | no change | no change | -0.14 | 4.57 |
| TXN2 (thioredoxin 2) | no change | no change | 0.14 | -0.51 |
| MTF2 (metal response element binding transcription factor 2) | no change (active) | CA2 (caspase activation) | -4.11 | 8.29 |
| TNMD (tenomodulin) | no change | no change | -0.82 | -0.98 |
| FAM86B1 | no change (active) | CA1 (caspase activation) | 0.76 | 7.5 |
| PLCL1 (phospholipase C like 1 (inactive)) | no change | no change | -2.04 | 0.11 |
| CTSC (cathepsin C) | no change | no change | -1.46 | 2.02 |
| PCCB (propionyl-CoA carboxylase subunit beta) | no change | no change | 0.62 | -0.78 |
| STXBP4 (syntaxin binding protein 4) | no change | no change | 1.42 | -0.77 |
| TBC1D32 (TBC1 domain family member 32) | no change | no change | 0.56 | 0.18 |
| AAR2 (AAR2 splicing factor) | no change | no change | 1 | -0.86 |
| ZER1 (zyg-11 related cell cycle regulator) | no change | no change | 1.63 | -0.26 |
| BLVRB (biliverdin reductase B) | no change | no change | 0.26 | 0.09 |
| ZIC3 (Zic family zinc finger 3) | no change | no change | -0.67 | 1.19 |
| OLFML1 (olfactomedin like 1) | no change | no change | 0.6 | -1.21 |
| BBS10 (Bardet-Biedl syndrome 10) | no change | no change | -0.5 | -1.03 |
| SCFD1 (sec1 family domain containing 1) | no change | no change | -0.96 | -1 |
| PAQR4 (progestin and adipoQ receptor family member 4) | no change | no change | 0.6 | 1.8 |
| OR4K17 (olfactory receptor family 4 subfamily K member 17) | no change | no change | 1.43 | -0.84 |
| SREBF2 (sterol regulatory element binding transcription factor 2) | no change | no change | 0.42 | 0.44 |
| USP49 (ubiquitin specific peptidase 49) | no change | no change | 1.6 | 3.94 |
| C2CD4B (C2 calcium dependent domain containing 4B) | no change | no change | 0.97 | -0.17 |
| BLTP3A (bridge-like lipid transfer protein family member 3A) | no change | no change | -0.8 | 0.68 |
| MATCAP2 (microtubule associated tyrosine carboxypeptidase 2) | no change | no change | 0.2 | -0.3 |
| SELENOS (selenoprotein S) | no change | no change | 0.03 | -0.64 |
